Reference: patent US20230020092 (published 2023)

Legend:
[1] = general procedure: Fmoc solid-phase peptide synthesis; Rink amide resin; HATU/DIEA (cyclization); settings: whole synthesis, scale 1 mmol, TFA salt
[2] = general procedure: Fmoc solid-phase peptide synthesis; Rink amide resin (1.0 mmol/g); HATU/DIEA (cyclization); settings: conjugation step, TFA salt

Substance: cyclo(Phe-D-Phe-SNal-Arg-D-Arg-Arg-D-Arg-γ-Glu)-b-Ala-b-Ala-Lys(Maleimide)-NH2
- crude mass [1]: 2 g
- crude yield [1]: 70.1%

Substance: 5'-GGCCAAACCTCGGCTTACCTGAAAT-3'-C3-NH-PEG12-CPP12 (all PMO monomers) (SEQ ID NO: 244)
- final purity (method not given) [2]: >99%
